Results are given in words; binding and its absence hold for the method and conditions named. Some binding calls cover weakened binding; strength is not graded here.
Target: Somatostatin receptor 2 (SSTR2) (human) (UniProt P30874)
Test: radioligand binding; competition with 125I-Tyr11 SST14 on CHO-K1 cells expressing one of the five human somatostatin receptors each; HEPES buffer pH 7.4; 10 concentrations from 1 pM to 10 µM; 2–4 h; membranes filtered and washed three times; nonspecific binding with 1 µM SST; IC50 by three-parameter dose-response fit; done at Eurofins Panlabs; only the binder purified

By UniProt entry, the sequences of proteins in these tests, tags left out. Where a name states a change or a piece, a line headed by the entry shows the natural chain unless it says otherwise.
UniProt P30874: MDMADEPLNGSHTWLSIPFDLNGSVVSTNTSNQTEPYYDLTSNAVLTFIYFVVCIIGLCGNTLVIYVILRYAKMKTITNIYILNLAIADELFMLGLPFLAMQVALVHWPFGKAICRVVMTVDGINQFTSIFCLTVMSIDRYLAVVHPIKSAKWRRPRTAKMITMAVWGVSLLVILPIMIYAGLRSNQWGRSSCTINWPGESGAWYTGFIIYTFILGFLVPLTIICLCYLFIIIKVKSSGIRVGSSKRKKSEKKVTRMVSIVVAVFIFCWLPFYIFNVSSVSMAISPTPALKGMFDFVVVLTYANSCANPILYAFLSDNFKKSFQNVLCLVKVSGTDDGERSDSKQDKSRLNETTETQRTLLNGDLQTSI
UniProt Q62949: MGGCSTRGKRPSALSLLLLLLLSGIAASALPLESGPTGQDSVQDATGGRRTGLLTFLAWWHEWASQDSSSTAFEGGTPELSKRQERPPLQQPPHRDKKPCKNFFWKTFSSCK

binding: binds
Binder: PCKNFFWKTFSSCK (peptide, UniProt Q62949 99-112, internal disulfide bond between the two cysteines (cyclic peptide)) [Cortistatin-14 (r,mCST-14)]

Source: article PMC7994712 (Nature Communications, 2021)
